This is one part of the list. Most values lie at the level of the controls, where differences are scatter.
compound: CN[C@@H]1C[C@H]2O[C@@](C)([C@@H]1OC)n1c3ccccc3c3c4c(c5c6ccccc6n2c5c31)C(=O)NC4 [staurosporine]; experiment: log2 fold change of pooled soluble protein (PISA), ligand vs vehicle (log2 ratio); higher = more thermally stabilized; settings: ligand concentration: 20 uM; assay format: PISA pool 52.9/55.5/58.6 C

Chains of the proteins cited; added tags and fusions are not shown. Lines headed by an entry give the natural chain unless they say otherwise; changes in a name come on top.
UniProt Q3UE37: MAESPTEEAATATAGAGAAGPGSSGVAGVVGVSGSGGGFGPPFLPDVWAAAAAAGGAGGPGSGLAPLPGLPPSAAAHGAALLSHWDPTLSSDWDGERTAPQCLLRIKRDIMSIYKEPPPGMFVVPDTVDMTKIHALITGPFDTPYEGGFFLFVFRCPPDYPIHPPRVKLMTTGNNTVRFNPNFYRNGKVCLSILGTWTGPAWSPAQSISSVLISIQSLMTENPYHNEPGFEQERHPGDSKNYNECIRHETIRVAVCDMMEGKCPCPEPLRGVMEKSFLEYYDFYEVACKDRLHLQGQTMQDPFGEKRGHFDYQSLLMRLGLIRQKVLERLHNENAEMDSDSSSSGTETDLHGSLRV
UniProt Q4KMM3: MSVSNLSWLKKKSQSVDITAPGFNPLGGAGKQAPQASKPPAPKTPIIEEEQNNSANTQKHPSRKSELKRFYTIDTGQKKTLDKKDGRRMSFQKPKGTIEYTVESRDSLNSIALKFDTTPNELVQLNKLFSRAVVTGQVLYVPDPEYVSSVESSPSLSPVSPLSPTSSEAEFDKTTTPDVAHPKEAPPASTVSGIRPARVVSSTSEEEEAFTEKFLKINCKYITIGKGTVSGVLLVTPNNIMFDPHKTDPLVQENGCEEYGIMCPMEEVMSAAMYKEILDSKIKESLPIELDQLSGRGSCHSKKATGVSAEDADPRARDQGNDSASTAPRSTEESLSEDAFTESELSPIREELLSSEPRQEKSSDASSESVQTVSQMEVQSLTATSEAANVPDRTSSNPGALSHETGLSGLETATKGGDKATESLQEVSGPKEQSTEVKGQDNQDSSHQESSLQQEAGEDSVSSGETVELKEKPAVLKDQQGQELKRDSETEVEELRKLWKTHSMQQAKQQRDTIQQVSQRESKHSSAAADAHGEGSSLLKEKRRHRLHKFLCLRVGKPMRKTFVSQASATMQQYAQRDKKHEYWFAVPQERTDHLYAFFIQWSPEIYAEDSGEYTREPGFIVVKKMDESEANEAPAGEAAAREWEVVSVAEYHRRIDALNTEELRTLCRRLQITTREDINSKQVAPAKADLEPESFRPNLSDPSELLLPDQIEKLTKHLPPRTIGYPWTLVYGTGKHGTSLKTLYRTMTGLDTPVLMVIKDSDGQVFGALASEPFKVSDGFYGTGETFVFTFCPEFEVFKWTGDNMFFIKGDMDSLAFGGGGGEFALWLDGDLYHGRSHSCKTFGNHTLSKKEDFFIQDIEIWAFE
UniProt Q05186: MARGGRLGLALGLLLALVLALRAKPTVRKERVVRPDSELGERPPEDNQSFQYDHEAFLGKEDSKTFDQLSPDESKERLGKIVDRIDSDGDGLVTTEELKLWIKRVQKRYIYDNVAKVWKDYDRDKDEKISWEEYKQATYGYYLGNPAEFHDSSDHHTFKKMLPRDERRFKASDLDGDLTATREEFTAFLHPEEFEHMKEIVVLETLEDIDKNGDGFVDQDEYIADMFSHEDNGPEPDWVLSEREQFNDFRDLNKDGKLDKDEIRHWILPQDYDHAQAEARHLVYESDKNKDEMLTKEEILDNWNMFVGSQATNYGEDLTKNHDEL
UniProt Q3URQ7: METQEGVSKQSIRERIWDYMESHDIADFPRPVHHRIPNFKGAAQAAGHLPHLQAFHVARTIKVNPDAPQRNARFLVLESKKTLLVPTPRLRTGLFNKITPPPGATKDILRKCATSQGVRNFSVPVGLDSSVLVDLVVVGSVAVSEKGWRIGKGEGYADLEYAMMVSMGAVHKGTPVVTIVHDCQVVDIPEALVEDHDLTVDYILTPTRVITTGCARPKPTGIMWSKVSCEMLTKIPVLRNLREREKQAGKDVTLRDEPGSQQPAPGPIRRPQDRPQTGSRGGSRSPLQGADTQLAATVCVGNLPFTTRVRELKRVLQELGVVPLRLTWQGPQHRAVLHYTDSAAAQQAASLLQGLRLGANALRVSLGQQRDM
UniProt Q3TIV5: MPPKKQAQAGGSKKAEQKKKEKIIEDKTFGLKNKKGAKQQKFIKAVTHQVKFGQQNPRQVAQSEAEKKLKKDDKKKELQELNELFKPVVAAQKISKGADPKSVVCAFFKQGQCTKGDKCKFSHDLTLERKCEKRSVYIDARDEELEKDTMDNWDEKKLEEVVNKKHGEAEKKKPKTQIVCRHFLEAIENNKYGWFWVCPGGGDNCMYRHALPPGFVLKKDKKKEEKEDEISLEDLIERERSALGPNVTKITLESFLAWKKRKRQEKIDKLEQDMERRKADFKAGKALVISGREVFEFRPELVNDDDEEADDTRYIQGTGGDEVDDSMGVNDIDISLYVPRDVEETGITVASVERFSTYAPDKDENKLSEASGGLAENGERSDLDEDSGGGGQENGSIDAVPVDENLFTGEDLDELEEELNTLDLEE
UniProt Q3TDQ1: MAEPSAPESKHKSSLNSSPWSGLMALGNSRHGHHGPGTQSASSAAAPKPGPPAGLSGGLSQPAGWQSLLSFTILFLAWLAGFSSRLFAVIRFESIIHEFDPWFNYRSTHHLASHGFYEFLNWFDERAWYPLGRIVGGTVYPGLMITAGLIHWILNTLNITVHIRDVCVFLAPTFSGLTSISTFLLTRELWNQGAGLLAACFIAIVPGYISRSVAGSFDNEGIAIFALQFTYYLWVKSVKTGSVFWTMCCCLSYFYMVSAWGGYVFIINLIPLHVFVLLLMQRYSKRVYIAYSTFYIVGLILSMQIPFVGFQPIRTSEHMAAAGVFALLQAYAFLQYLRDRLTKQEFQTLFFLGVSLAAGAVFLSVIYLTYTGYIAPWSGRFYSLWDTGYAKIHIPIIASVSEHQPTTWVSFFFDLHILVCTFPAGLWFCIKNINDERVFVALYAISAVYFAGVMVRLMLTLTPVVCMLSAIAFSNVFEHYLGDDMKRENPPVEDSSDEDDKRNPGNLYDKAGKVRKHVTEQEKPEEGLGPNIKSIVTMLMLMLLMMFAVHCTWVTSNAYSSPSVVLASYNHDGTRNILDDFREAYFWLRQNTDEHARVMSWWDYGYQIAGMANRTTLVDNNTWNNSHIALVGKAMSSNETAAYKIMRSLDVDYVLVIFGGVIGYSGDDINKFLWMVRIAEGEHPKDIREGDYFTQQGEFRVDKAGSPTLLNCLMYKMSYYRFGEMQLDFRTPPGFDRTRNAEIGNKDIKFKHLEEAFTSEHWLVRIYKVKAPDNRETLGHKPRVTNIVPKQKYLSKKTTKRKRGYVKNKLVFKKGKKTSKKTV
UniProt Q3TXU5: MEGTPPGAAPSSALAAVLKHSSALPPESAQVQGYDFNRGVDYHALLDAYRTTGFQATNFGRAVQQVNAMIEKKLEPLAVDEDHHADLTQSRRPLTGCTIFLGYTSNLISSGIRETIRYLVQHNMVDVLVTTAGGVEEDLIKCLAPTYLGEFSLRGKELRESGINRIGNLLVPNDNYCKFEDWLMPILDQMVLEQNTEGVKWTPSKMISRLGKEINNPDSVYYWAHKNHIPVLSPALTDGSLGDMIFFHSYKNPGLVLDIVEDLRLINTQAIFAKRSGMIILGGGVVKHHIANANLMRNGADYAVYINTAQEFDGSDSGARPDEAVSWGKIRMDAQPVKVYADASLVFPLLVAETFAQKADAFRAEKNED
UniProt Q3THS6: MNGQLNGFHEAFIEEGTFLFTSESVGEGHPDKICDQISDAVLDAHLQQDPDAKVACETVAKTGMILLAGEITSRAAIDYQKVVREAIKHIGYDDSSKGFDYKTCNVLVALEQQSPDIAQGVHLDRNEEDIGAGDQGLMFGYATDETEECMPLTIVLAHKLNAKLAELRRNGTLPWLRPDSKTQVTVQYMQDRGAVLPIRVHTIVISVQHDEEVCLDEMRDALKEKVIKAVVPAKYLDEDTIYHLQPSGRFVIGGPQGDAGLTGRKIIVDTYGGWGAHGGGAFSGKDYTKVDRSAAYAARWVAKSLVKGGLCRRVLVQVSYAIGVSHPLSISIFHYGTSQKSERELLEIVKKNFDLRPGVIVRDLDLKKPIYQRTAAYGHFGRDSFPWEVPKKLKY
UniProt Q3B7Z2, whole entry: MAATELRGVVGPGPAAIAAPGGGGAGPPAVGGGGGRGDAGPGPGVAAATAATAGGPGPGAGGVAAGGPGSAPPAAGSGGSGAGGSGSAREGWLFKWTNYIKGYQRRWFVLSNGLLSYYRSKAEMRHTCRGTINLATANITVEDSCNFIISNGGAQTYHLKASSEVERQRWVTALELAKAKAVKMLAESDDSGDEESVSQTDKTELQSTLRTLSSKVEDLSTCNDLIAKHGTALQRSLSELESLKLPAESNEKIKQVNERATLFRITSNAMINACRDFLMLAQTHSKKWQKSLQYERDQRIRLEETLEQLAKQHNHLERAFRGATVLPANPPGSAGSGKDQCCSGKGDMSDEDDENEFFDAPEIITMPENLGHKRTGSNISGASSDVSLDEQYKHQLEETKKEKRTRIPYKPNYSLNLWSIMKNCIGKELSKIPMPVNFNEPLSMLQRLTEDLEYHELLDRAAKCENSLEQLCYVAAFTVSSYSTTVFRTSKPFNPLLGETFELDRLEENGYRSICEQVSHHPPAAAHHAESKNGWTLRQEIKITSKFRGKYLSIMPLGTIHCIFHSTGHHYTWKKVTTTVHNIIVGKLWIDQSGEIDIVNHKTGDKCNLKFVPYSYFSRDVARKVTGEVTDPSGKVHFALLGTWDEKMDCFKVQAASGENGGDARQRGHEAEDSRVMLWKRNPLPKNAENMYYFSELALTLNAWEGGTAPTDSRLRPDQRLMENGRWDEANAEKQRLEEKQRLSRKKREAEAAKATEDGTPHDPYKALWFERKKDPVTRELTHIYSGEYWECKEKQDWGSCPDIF
UniProt Q19LI2: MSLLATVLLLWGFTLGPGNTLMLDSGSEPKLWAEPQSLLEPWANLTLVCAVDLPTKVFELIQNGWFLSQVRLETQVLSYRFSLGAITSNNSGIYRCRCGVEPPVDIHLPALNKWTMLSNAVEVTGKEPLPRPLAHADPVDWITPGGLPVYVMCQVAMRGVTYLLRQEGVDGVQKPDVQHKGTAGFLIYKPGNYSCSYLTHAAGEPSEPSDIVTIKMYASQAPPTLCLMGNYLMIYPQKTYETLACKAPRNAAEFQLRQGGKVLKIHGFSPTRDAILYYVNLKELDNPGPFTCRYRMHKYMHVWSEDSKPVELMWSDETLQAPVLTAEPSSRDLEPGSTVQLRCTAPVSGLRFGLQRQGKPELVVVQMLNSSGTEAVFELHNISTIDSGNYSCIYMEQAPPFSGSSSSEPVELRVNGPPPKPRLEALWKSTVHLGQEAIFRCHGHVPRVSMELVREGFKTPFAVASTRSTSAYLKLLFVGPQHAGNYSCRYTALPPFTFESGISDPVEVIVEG
UniProt Q00915: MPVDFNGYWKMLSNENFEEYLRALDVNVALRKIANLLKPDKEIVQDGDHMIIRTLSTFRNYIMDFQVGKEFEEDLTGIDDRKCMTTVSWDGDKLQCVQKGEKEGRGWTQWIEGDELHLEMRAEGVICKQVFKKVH
UniProt Q0VGB7: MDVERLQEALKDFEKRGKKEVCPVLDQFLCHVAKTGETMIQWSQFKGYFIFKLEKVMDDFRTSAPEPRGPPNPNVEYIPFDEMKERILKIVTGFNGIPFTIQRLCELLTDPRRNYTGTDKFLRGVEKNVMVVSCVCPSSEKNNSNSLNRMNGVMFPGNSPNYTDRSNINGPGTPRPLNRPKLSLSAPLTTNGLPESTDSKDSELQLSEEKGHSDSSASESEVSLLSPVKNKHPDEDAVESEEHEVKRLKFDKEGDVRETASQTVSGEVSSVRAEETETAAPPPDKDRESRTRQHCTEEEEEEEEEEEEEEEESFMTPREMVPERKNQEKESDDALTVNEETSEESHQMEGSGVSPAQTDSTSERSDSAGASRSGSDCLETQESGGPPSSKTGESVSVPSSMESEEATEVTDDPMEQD
UniProt Q08501: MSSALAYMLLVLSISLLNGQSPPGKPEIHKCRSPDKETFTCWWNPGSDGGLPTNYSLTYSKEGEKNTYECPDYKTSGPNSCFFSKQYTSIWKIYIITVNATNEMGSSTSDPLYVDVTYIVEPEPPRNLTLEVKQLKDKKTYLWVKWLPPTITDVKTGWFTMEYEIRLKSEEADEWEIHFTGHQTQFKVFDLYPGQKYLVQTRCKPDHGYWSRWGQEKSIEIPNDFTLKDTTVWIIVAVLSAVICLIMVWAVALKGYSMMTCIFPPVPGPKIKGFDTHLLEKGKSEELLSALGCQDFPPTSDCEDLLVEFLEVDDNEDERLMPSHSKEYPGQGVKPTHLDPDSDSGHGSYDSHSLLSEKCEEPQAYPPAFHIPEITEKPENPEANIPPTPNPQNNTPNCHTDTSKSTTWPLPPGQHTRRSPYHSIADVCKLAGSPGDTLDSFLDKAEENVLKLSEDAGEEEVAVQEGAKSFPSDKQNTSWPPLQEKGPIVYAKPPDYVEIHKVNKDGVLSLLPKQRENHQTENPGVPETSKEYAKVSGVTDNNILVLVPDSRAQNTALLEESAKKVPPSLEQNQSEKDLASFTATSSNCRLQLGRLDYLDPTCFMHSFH
UniProt Q3TGF2: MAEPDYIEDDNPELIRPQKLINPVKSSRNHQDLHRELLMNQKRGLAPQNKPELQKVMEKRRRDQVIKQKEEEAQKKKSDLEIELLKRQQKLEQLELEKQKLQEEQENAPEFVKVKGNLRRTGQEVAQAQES

Target	log2 fold change of pooled soluble protein
UniProt Q3THK3	-9.4e-05
UniProt Q5HZI1	-0.0382
UniProt Q5EBG8	0.00861
UniProt Q04447	-0.416
UniProt Q3UE37	0.129
UniProt Q3TZZ7	0.3
UniProt Q4KMM3	0.0682
UniProt Q05186	0.0376
UniProt Q3URQ7	0.0357
UniProt Q3UVK0	-0.0101
UniProt Q3TLH4	0.0201
UniProt Q5PSV9	0.00812
Q3UGC7;Q66JS6	-0.0512
UniProt Q3UMT1	-0.0576
UniProt Q3TIV5	-0.104
UniProt Q3UL97	-0.18
UniProt Q4VC33	-0.106
UniProt Q3TDQ1	0.149
UniProt Q3TXU5	0.391

An excerpt taken from the entries so far, as a working copy:
Target	log2 fold change of pooled soluble protein
UniProt Q4VC33	-0.106
UniProt Q3TDQ1	0.149

(list continues)

Target	log2 fold change of pooled soluble protein
UniProt Q3UMR5	-0.0873
UniProt Q08091	0.334
UniProt P99025	0.045
UniProt Q3THS6	-0.0429
UniProt P98078	-0.02
UniProt Q3TNA1	0.0212
UniProt Q3UGR5	-0.341
UniProt Q3B7Z2	-0.0467
UniProt Q19LI2	-0.0136
UniProt Q00915	-0.0359
UniProt P97821	-0.00461
UniProt Q0VGB7	0.0778
UniProt Q08501	-0.184
UniProt Q08943	-0.0759
UniProt Q02819	0.0447
UniProt Q3TGF2	0.0781
UniProt Q3U4I7	0.0549
UniProt Q05421	-0.0185

Reference: the supplement of paper PMC12819154, “High-throughput peptide-centric local stability assay extends protein–ligand identification to membrane proteins, tissues and bacteria” (Nature Structural & Molecular Biology, 2025)
